In article PMC4105859, “Characterization of the SAM domain of the PKD-related protein ANKS6 and its interaction with ANKS3” (BMC Structural Biology, 2014):
Numbering of substitutions follows the chain as printed. Results are given in words; binding and its absence hold for the method and conditions named. Some entries that bind do so weakly or less than the wild type. Sequences can lack the tags named with a protein. Values belong to the binder of their own block, whether it stands above or below them.

Assays:
[1] = target: T1, negGFP-ANKS6-SAM R823W (human) (UniProt Q68DC2); assay: native gel or EMSA; negGFP native gel binding assay: lysates of two negGFP-SAM fusions mixed (1:1, or varying ratios by fluorescence), 20 mM Tris pH 7.5, 0.3 M NaCl, TCEP, equilibrated 3-4 h at 4°C, 20% native gel, read by fluorescence; a new upshifted band means binding
T1 sequence: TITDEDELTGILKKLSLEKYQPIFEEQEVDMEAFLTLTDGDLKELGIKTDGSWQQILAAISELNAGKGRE

[2] = target: T2, negGFP-ANKS6-SAM fusion protein (human) (UniProt Q68DC2); assay: as above
T2 sequence: T1 sequence with W53R

[3] = target: negGFP-ANKS3-SAM fusion protein (human) (UniProt Q6ZW76); assay: native gel or EMSA; negGFP native gel assay of one negGFP-SAM fusion alone (lysate); self-association read from diffuse, slower migration against monomeric SAM domains
[4] = target: T2, negGFP-ANKS6-SAM fusion protein (human); assay: as above

binding [1]: no binding
binding [2]: binds
binding [3]: binds weakly
B1: negGFP-ANKS3-SAM fusion protein (domain or fragment, human, UniProt Q6ZW76 421-490, looked up)
chain: RAPYSGPQDLAALLEQIGCLKYLQVFEEQDVDLRIFLTLTESDLKEIGITLFGPKRKMTSAIARWHSSAR
notes: ANKS3 (ankyrin repeat and SAM-domain containing protein 3), human, SAM domain, residues 421-490 of UniProt Q6ZW76; source: ARI814 cells, in lysate (native gel); purified (Ni-NTA, HiTrap Q) for TEM

binding [4]: no binding
B2: negGFP-ANKS6-SAM fusion protein (domain or fragment, UniProt Q68DC2 771-840)
chain: T1 sequence with W53R
